Earlier results as cited in paper PMC4019635 (PLoS ONE, 2014).

How the values were obtained:
RDLbdR^122G = conditions: read-out: GABA EC50; without A^301G; cited from earlier work
[1] = test system: RDLbdR^122G with the A^301G mutation; conditions: cited from earlier work

## NCCCC(=O)O [GABA, γ-amino butyric acid]
RDLbdR^122G
  EC50: 70 µM
[1]
  EC50: 26 µM
